According to article PMC4661921:
Results are given in words; binding and its absence hold for the method and conditions named. In cells and extracts the contact can be indirect. Some results given as binding are weak or reduced against the parent protein; the word gives no strength. Where a sequence is shown, tags or fusion partners need not be part of it.

Legend:
[1] = target: T1, Flag-tagged IL-33 (interleukin-33) (human) (UniProt O95760); assay: co-IP; HEK293T cells co-transfected; lysed in RIPA buffer (50 mM Tris-HCl pH 7.5, 150 mM NaCl, 1 mM EDTA, 1% NP-40, 0.25% NaDoc, 10% glycerol); IP with anti-Flag antibody 2 h at 4 °C, protein A/G agarose; immune blot
T1 sequence: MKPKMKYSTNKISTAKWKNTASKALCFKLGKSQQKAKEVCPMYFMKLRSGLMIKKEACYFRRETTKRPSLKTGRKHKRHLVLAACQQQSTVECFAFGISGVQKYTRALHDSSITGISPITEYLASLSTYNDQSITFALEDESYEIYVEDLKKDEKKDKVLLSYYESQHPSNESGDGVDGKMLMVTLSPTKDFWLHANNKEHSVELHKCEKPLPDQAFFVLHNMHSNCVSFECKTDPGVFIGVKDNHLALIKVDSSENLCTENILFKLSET

[2] = target: T2, Myc-tagged USP17 (ubiquitin-specific protease 17) (human) (UniProt Q6R6M4); assay: co-IP; reciprocal: HEK293T cells co-transfected; lysed in RIPA buffer; IP with anti-Myc antibody 2 h at 4 °C, protein A/G agarose; immune blot
T2 sequence: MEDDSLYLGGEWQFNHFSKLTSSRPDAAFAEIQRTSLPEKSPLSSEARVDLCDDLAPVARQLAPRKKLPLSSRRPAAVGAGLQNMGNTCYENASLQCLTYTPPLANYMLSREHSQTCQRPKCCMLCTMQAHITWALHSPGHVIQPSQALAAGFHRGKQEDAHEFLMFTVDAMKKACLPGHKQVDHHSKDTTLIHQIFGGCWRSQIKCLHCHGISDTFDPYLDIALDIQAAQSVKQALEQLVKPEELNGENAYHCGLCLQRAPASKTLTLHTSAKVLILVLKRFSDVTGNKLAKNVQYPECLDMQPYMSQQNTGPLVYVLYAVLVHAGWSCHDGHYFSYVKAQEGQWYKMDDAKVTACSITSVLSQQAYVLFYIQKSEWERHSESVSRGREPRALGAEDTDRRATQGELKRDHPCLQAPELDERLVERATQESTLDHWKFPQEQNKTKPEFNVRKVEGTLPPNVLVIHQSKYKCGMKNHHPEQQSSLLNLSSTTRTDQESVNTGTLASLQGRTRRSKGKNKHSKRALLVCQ

Row | Binder | binding [1] | binding [2]
1 | Myc-tagged USP17 (ubiquitin-specific protease 17) (enzyme, UniProt Q6R6M4 1-530) MEDDSLYLGGEWQFNHFSKLTSSRPDAAFAEIQRTSLPEKSPLSSEARVDLCDDLAPVARQLAPRKKLPLSSRRPAAVGAGLQNMGNTCYENASLQCLTYTPPLANYMLSREHSQTCQRPKCCMLCTMQAHITWALHSPGHVIQPSQALAAGFHRGKQEDAHEFLMFTVDAMKKACLPGHKQVDHHSKDTTLIHQIFGGCWRSQIKCLHCHGISDTFDPYLDIALDIQAAQSVKQALEQLVKPEELNGENAYHCGLCLQRAPASKTLTLHTSAKVLILVLKRFSDVTGNKLAKNVQYPECLDMQPYMSQQNTGPLVYVLYAVLVHAGWSCHDGHYFSYVKAQEGQWYKMDDAKVTACSITSVLSQQAYVLFYIQKSEWERHSESVSRGREPRALGAEDTDRRATQGELKRDHPCLQAPELDERLVERATQESTLDHWKFPQEQNKTKPEFNVRKVEGTLPPNVLVIHQSKYKCGMKNHHPEQQSSLLNLSSTTRTDQESVNTGTLASLQGRTRRSKGKNKHSKRALLVCQ | binds | 
2 | Flag-tagged IL-33 (interleukin-33) (protein, UniProt O95760 1-270) MKPKMKYSTNKISTAKWKNTASKALCFKLGKSQQKAKEVCPMYFMKLRSGLMIKKEACYFRRETTKRPSLKTGRKHKRHLVLAACQQQSTVECFAFGISGVQKYTRALHDSSITGISPITEYLASLSTYNDQSITFALEDESYEIYVEDLKKDEKKDKVLLSYYESQHPSNESGDGVDGKMLMVTLSPTKDFWLHANNKEHSVELHKCEKPLPDQAFFVLHNMHSNCVSFECKTDPGVFIGVKDNHLALIKVDSSENLCTENILFKLSET |  | binds
